# Measured values as given in PubChem BioAssay AID588590 (National Center for Advancing Translational Sciences (NCATS), 2011).
# The chains behind the UniProt entries cited, without tags or fusion partners. Where a name states a change or a piece, a line headed by the entry shows the natural chain unless it says otherwise.
# UniProt Q9UNA4: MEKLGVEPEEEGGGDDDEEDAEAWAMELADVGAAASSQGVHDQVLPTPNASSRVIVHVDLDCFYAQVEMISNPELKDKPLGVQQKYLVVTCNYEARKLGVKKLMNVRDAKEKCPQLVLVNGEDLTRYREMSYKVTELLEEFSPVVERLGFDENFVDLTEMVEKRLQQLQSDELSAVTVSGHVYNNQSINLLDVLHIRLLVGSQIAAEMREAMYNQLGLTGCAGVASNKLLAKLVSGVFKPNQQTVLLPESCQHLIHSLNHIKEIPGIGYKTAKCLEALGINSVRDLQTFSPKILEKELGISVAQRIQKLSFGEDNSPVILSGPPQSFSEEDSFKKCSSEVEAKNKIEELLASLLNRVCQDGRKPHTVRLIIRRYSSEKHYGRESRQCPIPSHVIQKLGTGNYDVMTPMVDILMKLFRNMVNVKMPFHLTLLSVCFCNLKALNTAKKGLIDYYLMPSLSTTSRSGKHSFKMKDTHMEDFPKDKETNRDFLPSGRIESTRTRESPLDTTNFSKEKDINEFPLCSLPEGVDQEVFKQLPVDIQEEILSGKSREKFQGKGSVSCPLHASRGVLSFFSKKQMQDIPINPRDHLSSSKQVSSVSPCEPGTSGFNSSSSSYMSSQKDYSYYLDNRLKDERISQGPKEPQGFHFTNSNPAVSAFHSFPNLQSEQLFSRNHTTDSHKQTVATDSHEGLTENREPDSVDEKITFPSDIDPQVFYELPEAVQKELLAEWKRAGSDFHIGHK
# The campaign covered roughly 390,000 compounds. About 4,000 (1%) were called active. Inconclusive results, whose numbers are uncertain, are shown with a selection of clear calls. Calls follow the shape of the dose curve; as a rule, active = well fitted inhibition curve with a large enough effect; inconclusive = small, poorly fitted or top-dose-only effect, or another doubt; inactive = no such curve, though single readings can be large or run the other way. Potencies beside an inconclusive call are fits to weak or partial responses and may not hold up.
# Target: DNA polymerase iota (Homo sapiens) (UniProt Q9UNA4)
# Assay: qHTS for Inhibitors of Polymerase Iota
# Settings: Pol iota fluorescent replication assay, 10 min; series mostly up to 115 µM
# Method in brief: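 Fluorescent replication assay read twice, at 0 min and 10 min after adding 50 nM (final) substrate. Enzyme (10 nM) and compounds were first incubated 15 min at room temperature; enzyme-free buffer wells were negative controls.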
# Potency is read from the fitted curve at half-maximal effect.
row,Structure (SMILES),Potency
1,COc1cccc2cc(-c3nnc(SCC(=O)NCCc4ccccc4)n3C)oc12,"inconclusive: 25.1 µM [inhibitor, partial curve, poor fit]"
2,COc1ccccc1Nc1ncc(-c2cccs2)s1,"inconclusive: 8.91 µM [inhibitor, partial curve, poor fit]"
3,O=C(OCc1nnc(-c2ccccc2)o1)c1ccc([N+](=O)[O-])o1,"inconclusive: 31.6 µM [inhibitor, single point]"
4,COc1ccc(Br)cc1CNC(=O)c1cc(=O)[nH]c2ccc(S(=O)(=O)N3CCCCC3)cc12,inactive
5,O=C(NCCCCNC(=O)c1ccccc1Br)c1ccccc1Br,inactive
6,CCOC(=O)c1ccc(NS(=O)(=O)c2ccc3c(c2)OCCO3)cc1,"inconclusive: 89.1 µM [inhibitor, single point]"
7,CC(C)(C)NS(=O)(=O)c1ccc(NC(=O)NC2CCCCC2)cc1,"inconclusive: 89.1 µM [inhibitor, partial curve, poor fit]"
8,CCOC(=O)c1cnc(-n2[nH]c(C)c(Cc3ccccc3)c2=O)[nH]c1=O,"inconclusive: 0.708 µM [inhibitor, full curve, poor fit]"
9,Cc1nnc(SCC(=O)Nc2sc3c(c2C#N)CCCC3)[nH]c1=O,"inconclusive: 20 µM [inhibitor, partial curve, poor fit]"
10,O=C(COC(=O)CCN1C(=O)/C(=C\C=C\c2ccccc2)SC1=S)Nc1cc(F)ccc1F,active: 25.1 µM
11,COc1ccc(CNC(=O)CCCn2c(=O)c3cccn3c3ccc(F)cc32)cc1OC,inactive
12,O=c1cc(-c2ccccc2)[nH][nH]1,"inconclusive: 2.82 µM [inhibitor, full curve, poor fit]"
13,S=c1[nH]nc(-c2cc(-c3ccco3)[nH]n2)n1-c1ccccc1Cl,"inconclusive: 10 µM [inhibitor, partial curve, poor fit]"
14,O=C(Nc1ccc(F)cc1F)c1cc(-c2ccco2)nc2ccccc12,inactive
15,COc1ccc(CNC2CCN(Cc3ccccc3)CC2)cc1,"inconclusive: 2.82 µM [inhibitor, full curve, poor fit]"
16,O=[N+]([O-])c1cccc(CSc2nc3ccccc3[nH]2)c1,"inconclusive: 89.1 µM [inhibitor, single point]"
17,CCC(=O)NCC(c1cccs1)N1CCOCC1 (stereo unspecified),"inconclusive: 3.55 µM [inhibitor, full curve, poor fit]"
18,COc1cc(NC2=Nc3cccc4cccc2c34)cc(OC)c1OC,inactive
19,CC1=C(C(=O)OCc2ccccc2)C(c2cccs2)NC(=O)N1CCCC(=O)O (stereo unspecified),"inconclusive: 10 µM [inhibitor, full curve, poor fit]"
20,COc1cc2ccc3c(CCN(C)C)cc(OC)c(OC)c3c2cc1OC,"inconclusive: 50.1 µM [inhibitor, partial curve, poor fit]"
21,O=C1c2ccccc2-c2cccc(NS(=O)(=O)c3ccc(C(F)(F)F)cc3)c21,"inconclusive: 20 µM [inhibitor, partial curve, poor fit]"
22,COc1ccc(-c2csc(NNC3=NCCCCC3)n2)cc1,"inconclusive: 20 µM [inhibitor, partial curve, poor fit]"

# Part of the list above in order of formula weight, ascending:
row,Structure (SMILES),Potency
12,O=c1cc(-c2ccccc2)[nH][nH]1,"inconclusive: 2.82 µM [inhibitor, full curve, poor fit]"
17,CCC(=O)NCC(c1cccs1)N1CCOCC1 (stereo unspecified),"inconclusive: 3.55 µM [inhibitor, full curve, poor fit]"
16,O=[N+]([O-])c1cccc(CSc2nc3ccccc3[nH]2)c1,"inconclusive: 89.1 µM [inhibitor, single point]"
2,COc1ccccc1Nc1ncc(-c2cccs2)s1,"inconclusive: 8.91 µM [inhibitor, partial curve, poor fit]"
15,COc1ccc(CNC2CCN(Cc3ccccc3)CC2)cc1,"inconclusive: 2.82 µM [inhibitor, full curve, poor fit]"
3,O=C(OCc1nnc(-c2ccccc2)o1)c1ccc([N+](=O)[O-])o1,"inconclusive: 31.6 µM [inhibitor, single point]"
22,COc1ccc(-c2csc(NNC3=NCCCCC3)n2)cc1,"inconclusive: 20 µM [inhibitor, partial curve, poor fit]"
18,COc1cc(NC2=Nc3cccc4cccc2c34)cc(OC)c1OC,inactive
13,S=c1[nH]nc(-c2cc(-c3ccco3)[nH]n2)n1-c1ccccc1Cl,"inconclusive: 10 µM [inhibitor, partial curve, poor fit]"
14,O=C(Nc1ccc(F)cc1F)c1cc(-c2ccco2)nc2ccccc12,inactive
7,CC(C)(C)NS(=O)(=O)c1ccc(NC(=O)NC2CCCCC2)cc1,"inconclusive: 89.1 µM [inhibitor, partial curve, poor fit]"
9,Cc1nnc(SCC(=O)Nc2sc3c(c2C#N)CCCC3)[nH]c1=O,"inconclusive: 20 µM [inhibitor, partial curve, poor fit]"
20,COc1cc2ccc3c(CCN(C)C)cc(OC)c(OC)c3c2cc1OC,"inconclusive: 50.1 µM [inhibitor, partial curve, poor fit]"
19,CC1=C(C(=O)OCc2ccccc2)C(c2cccs2)NC(=O)N1CCCC(=O)O (stereo unspecified),"inconclusive: 10 µM [inhibitor, full curve, poor fit]"
1,COc1cccc2cc(-c3nnc(SCC(=O)NCCc4ccccc4)n3C)oc12,"inconclusive: 25.1 µM [inhibitor, partial curve, poor fit]"
11,COc1ccc(CNC(=O)CCCn2c(=O)c3cccn3c3ccc(F)cc32)cc1OC,inactive
5,O=C(NCCCCNC(=O)c1ccccc1Br)c1ccccc1Br,inactive
10,O=C(COC(=O)CCN1C(=O)/C(=C\C=C\c2ccccc2)SC1=S)Nc1cc(F)ccc1F,active: 25.1 µM
4,COc1ccc(Br)cc1CNC(=O)c1cc(=O)[nH]c2ccc(S(=O)(=O)N3CCCCC3)cc12,inactive

# (next part)

row,Structure (SMILES),Potency
1,O=C1N/C(=N\N=C\c2cccs2)SC1Cc1cccc(Cl)c1 (stereo unspecified),"inconclusive: 89.1 µM [inhibitor, single point]"
2,CCCCC1=CC2=CC(=O)C(C)(OC(=O)CC)C(=O)C2=CN1c1cccc(C#N)c1 (stereo unspecified),"inconclusive: 12.6 µM [inhibitor, partial curve, poor fit]"
3,COc1ccc(NC(=O)Cn2nnc(C(=O)NCc3ccc4c(c3)OCO4)c2N)c(OC)c1,"inconclusive: 50.1 µM [inhibitor, partial curve, poor fit]"
4,CCN(CC)C(=O)CC(c1ccc(N(C)C)cc1)c1c(OC)cc(OC)c2ccc(=O)oc12 (stereo unspecified),"inconclusive: 79.4 µM [inhibitor, partial curve]"
5,O=C(Nc1ccccn1)c1ccc([N+](=O)[O-])o1,"inconclusive: 79.4 µM [inhibitor, single point]"
6,Cc1ccoc1C(=O)NCCCNC(=O)c1occc1C,"inconclusive: 12.6 µM [inhibitor, partial curve, poor fit]"
7,CCC(=O)N1CCc2cc(S(=O)(=O)CCC(=O)N3CCN(c4cccc(Cl)c4)CC3)ccc21,"inconclusive: 89.1 µM [inhibitor, partial curve]"
8,C/C(=N\NC(=O)CCCNc1cccc(C)c1)c1ccncc1,"inconclusive: 100 µM [inhibitor, single point]"
9,O=C(OCC(=O)N1CCCC1)c1ccccc1OCc1ccccc1,inactive
10,CC(=O)c1ccc(OCC(O)CN2CCN(CCN3C(=O)c4cccc5cccc(c45)C3=O)CC2)cc1 (stereo unspecified),"inconclusive: 79.4 µM [inhibitor, partial curve, poor fit]"
11,Cc1ccc(OCc2nnc(SCC(=O)Nc3ccccc3C(C)C)o2)cc1,inactive
12,C/C(=N/Nc1ncc(Br)cn1)c1ccc(Br)cc1,inactive
13,COC(=O)CNc1nc(OC)nc(N(C)C)n1,"inconclusive: 89.1 µM [inhibitor, partial curve, poor fit]"
14,O=C(CN1CCC(n2nnc3cc(C(F)(F)F)ccc32)CC1)Nc1ccc2c(c1)OCCO2,"inconclusive: 112 µM [inhibitor, single point]"
15,CC(=O)c1cccc(NC(=O)c2oc(=O)c3ccccc3c2-c2ccccc2)c1,inactive
16,CC(C)(C)n1nnnc1C(c1ccc(F)cc1)N1CCC(C(N)=O)CC1 (stereo unspecified),"inconclusive: 14.1 µM [inhibitor, partial curve, poor fit]"
17,O=C(NCSc1ccncn1)c1ccccc1,"inconclusive: 12.6 µM [inhibitor, partial curve, poor fit]"
18,CCOc1ccc(NC(=O)CSc2nnc3c(n2)[nH]c2ccc(S(=O)(=O)N4CCOCC4)cc23)cc1,inactive
19,CC(C)CC(=O)Nc1cc(NC(=O)CC(C)C)cc(C(=O)NC(C)(C)C)c1,"inconclusive: 14.1 µM [inhibitor, partial curve, poor fit]"
20,Cc1nc2c(-c3ccccc3)c(C)nn2c(C)c1CCC(=O)NCc1ccc(Cl)cc1,inactive
21,CCOC(=O)c1c(N)n(C2CC(C)(C)NC(C)(C)C2)c2nc3ccccc3nc12,"inconclusive: 44.7 µM [inhibitor, partial curve]"
22,CCN(CC)C(=O)CNC(=O)Cc1ccc(Cl)cc1,"inconclusive: 112 µM [inhibitor, partial curve, poor fit]"

row,Structure (SMILES),Potency
1,COc1ccc(Nc2nc(-c3cccs3)nc3ccccc23)cc1S(=O)(=O)N1CCOCC1,"inconclusive: 35.5 µM [inhibitor, partial curve, poor fit]"
2,CC1CC=CC2C1C(=O)N(Cc1ccccc1)C2c1ccc(F)c(-c2ccc(N(C)C)cc2)c1 (stereo unspecified),inactive
3,COc1ccc(C(=O)NC(=S)Nc2ccc(S(=O)(=O)Nc3cc(OC)ncn3)cc2)cc1,inactive
4,COc1ccc2cc3c(N)nn(C(=O)c4cccc([N+](=O)[O-])c4)c3nc2c1,"inconclusive: 3.55 µM [inhibitor, partial curve, poor fit]"
5,CCOC(=O)c1c(NC(=O)CCC(=O)NCc2ccco2)sc2c1CCCC2,"inconclusive: 28.2 µM [inhibitor, single point]"
6,CC1(C)CC(=O)C(C(=O)CCCCC(=O)C2C(=O)CC(C)(C)CC2=O)C(=O)C1,inactive
7,C#Cc1ccc([C@H]2C=C(C(=O)NCc3ccccc3)O[C@@H](OCc3ccc(CO)cc3)C2)cc1,"inconclusive: 20 µM [inhibitor, single point]"
8,CNC(C)C#Cc1ccc2oc3cccc(OC)c3c(=O)c2c1 (stereo unspecified),"inconclusive: 7.08 µM [inhibitor, partial curve, poor fit]"
9,CCNC(=S)N/N=C/c1cccc(OCc2c(F)cccc2Cl)c1,inactive
10,CCN(CC)S(=O)(=O)c1ccc(NC(=O)CN(c2cccc(C)c2)S(C)(=O)=O)cc1,"inconclusive: 35.5 µM [inhibitor, single point]"
11,Cc1ccc(NC(=O)Nc2cccc(C)n2)cc1,"inconclusive: 70.8 µM [inhibitor, partial curve, poor fit]"
12,COc1ccccc1Nc1nc(-c2ccc(F)cc2)c2c(n1)-c1ccccc1OC2,inactive
13,COc1ccccc1CNC(=O)CCCn1c(=O)c2ccccc2n(Cc2ccc(F)cc2)c1=O,inactive
14,COc1ccc(-c2cc3nc(C)c(CCC(=O)NCc4ccccc4Cl)c(C)n3n2)c(OC)c1,inactive
16,Cn1cc(/C=C(\NC(=O)c2ccccc2)C(=O)NCCN2CCOCC2)c2ccccc21,"inconclusive: 35.5 µM [inhibitor, partial curve, poor fit]"
17,Cc1ccc(Sc2cnn(-c3ccccc3)c(=O)c2Cl)cc1,"inconclusive: 25.1 µM [inhibitor, full curve, poor fit]"
18,Cc1ccc(C)c(SCC(=O)Nc2ccc(C)c(S(=O)(=O)N3CCOCC3)c2)c1,"inconclusive: 17.8 µM [inhibitor, partial curve, poor fit]"
19,O=C(Cc1ccc(Cl)c(Cl)c1)NNC(=S)NCC1CCCO1 (stereo unspecified),inactive
20,Nc1nc(=S)c2snnc2[nH]1,inactive
21,O=C(O)c1ccc(N/N=C/c2ccc(-c3cccc(Cl)c3)o2)cc1,"inconclusive: 20 µM [inhibitor, full curve]"
22,Cc1ccc(/C=N/NC(=O)CSc2nc3ccccc3o2)cc1,"inconclusive: 15.8 µM [inhibitor, partial curve, poor fit]"
